The record followed here is ChEMBL document CHEMBL2331377, “Spirocyclic compounds, potent CCR1 antagonists” (Bioorg Med Chem Lett, 2013).

A short description of this series: in vitro. Particulars: human, Caco-2.

On to `CC(=O)Nc1ccc(O)cc1OC[C@@H](O)CN1CCC2(CC1)Cc1cc(Cl)ccc1O2`, for which the Papp is 13.5 ×10⁻⁶ cm/s.

By Papp is commonly meant the rate of passage across a membrane or cell layer, normalised by area and donor concentration. Read a low Papp as slow passage.
